Results are given in words; binding and its absence hold for the method and conditions named. In cells and extracts the contact can be indirect. Binding calls can cover weak binding; strength is not graded here. For some of these results: Sequences can lack the tags named with a protein.
What was measured:
LgBiT-PP1α (human) [1] = assay: split reporter; lysate-based split-luciferase, kinetic traces at 20-s intervals, room temperature; competitor added after assembly
LgBiT-PP1α (human) [2] = assay: split reporter; lysate-based split-luciferase kinetic traces; purified competitor (5 µM NIPP1-(143–224), or 10 μM SDS22-WT or SDS22-E192A) added to the lysates; only the binder purified
LgBiT-PP1α (human) [3] = assay: split reporter; lysate-based split-luciferase, HEK293T lysates with LgBiT and SmBiT fusions mixed, room temperature, endpoint after 15 min; signals normalized for expression

binding (LgBiT-PP1α (human) [1]) | Binder | further results
binds | SDS22-SmBiT (protein, UniProt Q15435 1-360) MAAERGAGQQQSQEMMEVDRRVESEESGDEEGKKHSSGIVADLSEQSLKDGEERGEEDPEEEHELPVDMETINLDRDAEDVDLNHYRIGKIEGFEVLKKVKTLCLRQNLIKCIENLEELQSLRELDLYDNQIKKIENLEALTELEILDISFNLLRNIEGVDKLTRLKKLFLVNNKISKIENLSNLHQLQMLELGSNRIRAIENIDTLTNLESLFLGKNKITKLQNLDALTNLTVLSMQSNRLTKIEGLQNLVNLRELYLSHNGIEVIEGLENNNKLTMLDIASNRIKKIENISHLTELQEFWMNDNLLESWSDLDELKGARSLETVYLERNPLQKDPQYRRKVMLALPSVRQIDATFVRF | –
– | SDS22 (tag-free, purified) (protein, UniProt Q15435 1-360) MAAERGAGQQQSQEMMEVDRRVESEESGDEEGKKHSSGIVADLSEQSLKDGEERGEEDPEEEHELPVDMETINLDRDAEDVDLNHYRIGKIEGFEVLKKVKTLCLRQNLIKCIENLEELQSLRELDLYDNQIKKIENLEALTELEILDISFNLLRNIEGVDKLTRLKKLFLVNNKISKIENLSNLHQLQMLELGSNRIRAIENIDTLTNLESLFLGKNKITKLQNLDALTNLTVLSMQSNRLTKIEGLQNLVNLRELYLSHNGIEVIEGLENNNKLTMLDIASNRIKKIENISHLTELQEFWMNDNLLESWSDLDELKGARSLETVYLERNPLQKDPQYRRKVMLALPSVRQIDATFVRF | binding (LgBiT-PP1α (human) [2]): binds
binds | RM-SmBiT (protein, UniProt Q69YH5 1-1023) MDANSKDKPPETKESAMNNAGNASFILGTGKIVTPQKHAELPPNPCTPDTFKSPLNFSTVTVEQLGITPESFVRNSAGKSSSYLKKCRRRSAVGARGSPETNHLIRFIARQQNIKNARKSPLAQDSPSQGSPALYRNVNTLRERISAFQSAFHSIKENEKMTGCLEFSEAGKESEMTDLTRKEGLSACQQSGFPAVLSSKRRRISYQRDSDENLTDAEGKVIGLQIFNIDTDRACAVETSVDLSEISSKLGSTQSGFLVEESLPLSELTETSNALKVADCVVGKGSSDAVSPDTFTAEVSSDAVPDVRSPATPACRRDLPTPKTFVLRSVLKKPSVKMCLESLQEHCNNLYDDDGTHPSLISNLPNCCKEKEAEDEENFEAPAFLNMRKRKRVTFGEDLSPEVFDESLPANTPLRKGGTPVCKKDFSGLSSLLLEQSPVPEPLPQPDFDDKGENLENIEPLQVSFAVLSSPNKSSISETLSGTDTFSSSNNHEKISSPKVGRITRTSNRRNQLVSVVEESVCNLLNTEVQPCKEKKINRRKSQETKCTKRALPKKSQVLKSCRKKKGKGKKSVQKSLYGERDIASKKPLLSPIPELPEVPEMTPSIPSIRRLGSGYFSSNGKLEEVKTPKNPVKRKDLLRHDPDLHMHQGYDKYDVSEFCSYIKSSSSLGNATSDEDPNTNIMNINENKNIPKAKNKSESENEPKAGTDSPVSCASVTEERVASDSPKPALTLQQGQEFSAGGQNAENLCQFFKISPDLNIKCERKDDFLGAAEGKLQCNRLMPNSQKDCHCLGDVLIENTKESKSQSEDLGRKPMESSSVVSCRDRKDRRRSMCYSDGRSLHLEKNGNHTPSSSVGSSVEISLENSELFKDLSDAIEQTFQRRNSETKVRRSTRLQKDLENEGLVWISLPLPSTSQKAKRRTICTFDSSGFESMSPIKETVSSRQKPQMAPPVSDPENSQGPAAGSSDEPGKRRKSFCISTLANTKATSQFKGYRRRSSLNGKGESSLTALERIEHNGERKQ | –
– | I2-SmBiT (protein, UniProt P41236 1-205) MAASTASHRPIKGILKNKTSTTSSMVASAEQPRGNVDEELSKKSQKWDEMNILATYHPADKDYGLMKIDEPSTPYHSMMGDDEDACSDTEATEAMAPDILARKLAAAEGLEPKYRIQEQESSGEEDSDLSPEEREKKRQFEMKRKLHYNEGLNIKLARQLISKDLHDDDEDEEMLETADGESMNTEESNQGSTPSDQQQNKLRSS | binding (LgBiT-PP1α (human) [3]): binds

— paper PMC11199634
